Screening data, single-dose tests

Protein sequences, listed by entry. Tags and fused reporters are not part of them.
UniProt P9WNZ1, whole entry: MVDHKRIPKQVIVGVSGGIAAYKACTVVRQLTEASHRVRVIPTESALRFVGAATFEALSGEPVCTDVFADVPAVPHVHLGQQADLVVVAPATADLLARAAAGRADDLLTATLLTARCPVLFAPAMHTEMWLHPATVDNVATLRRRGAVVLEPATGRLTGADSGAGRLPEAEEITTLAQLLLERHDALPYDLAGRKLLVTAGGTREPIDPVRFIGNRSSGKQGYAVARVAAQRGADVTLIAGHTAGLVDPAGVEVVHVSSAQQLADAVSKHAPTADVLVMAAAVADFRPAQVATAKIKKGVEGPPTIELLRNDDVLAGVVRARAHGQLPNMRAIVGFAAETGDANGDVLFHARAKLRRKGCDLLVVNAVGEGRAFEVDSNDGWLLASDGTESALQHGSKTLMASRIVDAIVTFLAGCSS

Leishmania in macrophages: 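Cell assay of Leishmania donovani living inside macrophages; the read-out is not stated. Concentration: 30 µM. The record gives no direction; compounds that gave an IC50 in retests scored well above the rest, so higher reads as stronger inhibition. Size under these conditions: about 69,000 compounds, about 1,000 of them at 50% or above in at least one test.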
CoaBC: 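Coenzyme A biosynthesis protein CoaBC, Mycobacterium tuberculosis (UniProt P9WNZ1). Enzyme assay of CoaBC with a phosphate dye (Biomol Green) read at 650 nm. Tested at 30 µM. Higher reads as stronger inhibition, judged from the few compounds that gave an IC50. Most strong results did not repeat in a second test. About 67,000 compounds were tested under these conditions; 0.06% (about 40) showed 50% or more at least once.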

Each number is a percent effect as filed. The controls that fix the scale are not given in the record; negative values are as filed. Compounds were drawn at random from those tested, without regard to their results. Two or more numbers in one place are separate tests of the same structure; such repeats can differ widely. A dash means the value is not listed here; it may have been measured.

CCn1ncc2c1CN(C(=O)c1cc(C)oc1C)CC2COC (centres unmarked) read CoaBC: -5%.
CCc1ccc(S(=O)(=O)Nc2ccc(F)cc2C(=O)O)s1 read Leishmania in macrophages: -14.03%; CoaBC: -1.868%.
O=C(CCn1ccccc1=O)Nc1ccc(F)c(Cl)c1 read Leishmania in macrophages: 16.85%; CoaBC: 1.762%.
CCN1Cc2cc(F)ccc2N(C(=O)C2CCC2)CCC1=O read Leishmania in macrophages: 4.058%; CoaBC: 5.085%.
Cc1cccc(C(=O)N(CCCO)S(=O)(=O)c2cccs2)c1 read Leishmania in macrophages: -4.336%; CoaBC: -6.263%.
COCC(=O)N1Cc2cn(C)nc2C(COc2cccnc2)C1 (centres unmarked) read Leishmania in macrophages: -29.81%; CoaBC: 0.1267%.
CN1CCOC(CNCCOc2ccc(C#N)cc2)C1 (centres unmarked) read Leishmania in macrophages: 22.52%; CoaBC: -11.27%.
Cc1nn(C)c(N(C)C)c1CNC1CCc2cc(F)ccc21 (centres unmarked) read CoaBC: -9.115%.
[H][C@@]12OCCN(C(=O)c3ccc(C)nc3)[C@@]1([H])CC[C@H]2OCCN(C)C read Leishmania in macrophages: 0.467%.
CCc1nccn1C1CCCN(C(=O)CCc2nccs2)C1 (centres unmarked) read Leishmania in macrophages: 39.02%; CoaBC: 1.542%.
c1ccc(-c2nnc(CN3CCOC(Cn4cccn4)C3)o2)cc1 (centres unmarked) read Leishmania in macrophages: 14.93%; CoaBC: 1.312%.
CN(C)C(=O)CN1C[C@@H]2CC[C@H](C1)N(C(=O)Cc1ccccc1Cl)C2 read CoaBC: -1.075%.
Cc1ccc(CN2CCCn3c(nc(Cn4ccnc4)cc3=O)C2)o1 read Leishmania in macrophages: 8.283%; CoaBC: 7.769%.
COCC1N(C(=O)c2ccc3c(c2)OCCCO3)[C@H]2CC[C@]1(O)CC2 (some centres unmarked) read CoaBC: 1.937%.
CCc1cccc(-n2nnc(C(=O)O)c2-c2ccncc2)c1 read Leishmania in macrophages: 8.291% & -3.48%; CoaBC: 3.797%.
NC(=O)c1ccnc(N2CCCC(CO)(Cc3ccc(F)cc3)C2)c1 (centres unmarked) read Leishmania in macrophages: 16.75%; CoaBC: -5.018%.
COc1ccc(CN2C[C@@H]3CN(Cc4ccncc4)C[C@@H]3C2=O)cc1 read CoaBC: -0.2545%.
Cc1nc(CN2CCN(C3CCOC3)Cc3cccnc32)cs1 (centres unmarked) read CoaBC: 3.158%.
CN(C)c1cc(NCc2cnc3n2CCN(CC2CC2)CC3)ncn1.O=C(O)C(F)(F)F read Leishmania in macrophages: 8.23%.
O=C(c1ccccc1)N1CCOC2(CCN(Cc3cccs3)CC2)C1 read CoaBC: 0.3861%.
CN(Cc1cccnc1)c1nc(-c2ccccn2)nc2c1CCNCC2 read Leishmania in macrophages: 1.265%; CoaBC: -3.752%.
Cc1noc(NC(=O)c2ccc(Br)o2)n1 read Leishmania in macrophages: -7.624%; CoaBC: 0.1304%.
CCSCCC(=O)Nc1ncn(Cc2ccccc2)n1 read Leishmania in macrophages: 1.169%; CoaBC: 4.305%.
CC(C)N(CC(N)=O)C(=O)c1cc(F)ccc1N1CCN(C)CC1 read Leishmania in macrophages: 8.825%; CoaBC: 0.2421%.
O=C(Cc1ccccc1)NC[C@H]1Cn2ccnc2CO1 read Leishmania in macrophages: 5.132%; CoaBC: -1.987%.
CC(C)C(C)(O)CNC(=O)Nc1ccccn1 (centres unmarked) read Leishmania in macrophages: 17.93%; CoaBC: -1.739%.
CCc1cnc(N2CC[C@@H]3CN(CCC(C)C)S(=O)(=O)[C@@H]3CC2)nc1 read CoaBC: 3.226%.
O=C(c1cscn1)N1CCC2(CCN(Cc3nccs3)CC2)C1 read CoaBC: 5.315%.
NCC(c1ccccc1)N1CCc2sccc2C1 (centres unmarked) read Leishmania in macrophages: 28.55%; CoaBC: 4.993%.
c1cncc(-c2noc(CN3CCc4cncnc4C3)n2)c1 read Leishmania in macrophages: 13.11%; CoaBC: 8.184%.
CN(C)C(=O)c1csc(-c2ccoc2)n1 read Leishmania in macrophages: -4.868%; CoaBC: 0.2451%.
CN(C)C(=O)c1ccc2c(c1)N(C)C(CC(=O)NCc1ncc[nH]1)CO2 (centres unmarked) read Leishmania in macrophages: 7.953%; CoaBC: 1.775%.
O=C(NCCNc1ccc(C(F)(F)F)cn1)c1ccc(Br)cc1 read Leishmania in macrophages: 28.16%; CoaBC: 1.305%.
CCCc1n[nH]c(=O)n1[C@@H](CC)c1ccccc1 read Leishmania in macrophages: -36.99%; CoaBC: 1.928%.
CN(Cc1ccsc1)C(=O)CN1CCCC1Cn1cccn1 (centres unmarked) read Leishmania in macrophages: 13.21%; CoaBC: 2.564%.

Repeated from the top, 4 entries:

Compound,Leishmania in macrophages,CoaBC
CCn1ncc2c1CN(C(=O)c1cc(C)oc1C)CC2COC (centres unmarked),-,-5%
CCc1ccc(S(=O)(=O)Nc2ccc(F)cc2C(=O)O)s1,-14.03%,-1.868%
O=C(CCn1ccccc1=O)Nc1ccc(F)c(Cl)c1,16.85%,1.762%
CCN1Cc2cc(F)ccc2N(C(=O)C2CCC2)CCC1=O,4.058%,5.085%

The values are deposited in ChEMBL (CHEMBL3988442, “University of Dundee, Small-Polar-MMV Screening Library” (2021)).